In patent publication US20240342214A1 (MEDIZINISCHE HOCHSCHULE HANNOVER, published 2024):
Each block holds one binder with its values, some of them ahead of it.

What was measured:
[1] = target: T1, human ENTPD3 (Ectonucleoside triphosphate diphosphohydrolase 3) expressed on cells (human, UniProt O75355 1-529); test: cell-based or functional assay
T1 sequence: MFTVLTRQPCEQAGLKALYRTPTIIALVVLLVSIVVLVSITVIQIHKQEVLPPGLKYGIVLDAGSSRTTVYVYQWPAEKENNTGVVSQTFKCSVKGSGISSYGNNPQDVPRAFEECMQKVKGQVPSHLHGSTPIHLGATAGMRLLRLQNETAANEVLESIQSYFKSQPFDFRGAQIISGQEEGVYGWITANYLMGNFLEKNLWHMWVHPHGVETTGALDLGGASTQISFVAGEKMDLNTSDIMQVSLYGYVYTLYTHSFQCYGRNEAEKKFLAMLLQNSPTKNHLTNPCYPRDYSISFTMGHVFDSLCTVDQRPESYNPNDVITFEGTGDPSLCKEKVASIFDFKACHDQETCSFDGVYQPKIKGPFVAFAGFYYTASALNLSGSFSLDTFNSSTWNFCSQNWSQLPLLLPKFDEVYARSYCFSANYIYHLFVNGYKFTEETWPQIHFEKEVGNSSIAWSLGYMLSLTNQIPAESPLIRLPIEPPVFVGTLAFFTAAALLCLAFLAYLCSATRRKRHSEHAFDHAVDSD

[2] = target: T1, human ENTPD3 (Ectonucleoside …); test: cell-based or functional assay; remark: listed apart in the source

Fold Change in IFN-γ secretion (hIsMT/T cell co-culture 48 hrs) [1]: 184 fold, relative to the mock CD8 T cells condition | Fold Change in IFN-γ secretion (hIsMT/T cell co-culture 72 hrs) [1]: 166 fold, relative to the mock CD8 T cells condition | Fold Change in TNF-α secretion (hIsMT/T cell co-culture 48 hrs) [2]: 386 fold, relative to the mock CD8 T cells condition | Fold Change in TNF-α secretion (hIsMT/T cell co-culture 72 hrs) [2]: 330 fold, relative to the mock CD8 T cells condition
B1: CAR 4-CD8 (antigen binding domain from binder C1, CD8 hinge) (other)
chain: QVQLVQSGAEVKKPGESLKISCKGSGYSFTSYWIGWVRQMPGKGLEWMGIIYPGDSGTRYSPSFQGQVTISADKSISTAYLQWSSLKASNTAMYYCARQQGAGAFDIWGQGTMVTVSSGGGGSGGGGSGGGGSQSALTQPPSASGSPGQSVTISCTGTSRDVGGYNYVSWYQQHPGKAPKLILYEVTKRPSGVPDRFSGSKSGNTASLTISGLQAEDEADYYCSSYTSSSTVVFGGGTKLTVLTRFVPVFLPAKPTTTPAPRPPTPAPTIASQPLSLRPEACRPAAGGAVHTRGLDFACDIYIWAPLAGTCGVLLLSLVITLYCNHRPPALEWVRSKRSRLLHSDYMNMTPRRPGPTRKHYQPYAPPRDFAAYRSASCTRVKFSRSADAPAYQQGQNQLYNELNLGRREEYDVLDKRRGRDPEMGGKPRRKNPQEGLYNELQKDKMAEAYSEIGMKGERRRGKGHDGLYQGLSTATKDTYDALHMQALPPR

Fold Change in IFN-γ secretion (hIsMT/T cell co-culture 48 hrs) [1]: 280 fold, relative to the mock CD8 T cells condition | Fold Change in IFN-γ secretion (hIsMT/T cell co-culture 72 hrs) [1]: 310 fold, relative to the mock CD8 T cells condition | Fold Change in TNF-α secretion (hIsMT/T cell co-culture 48 hrs) [2]: 341 fold, relative to the mock CD8 T cells condition | Fold Change in TNF-α secretion (hIsMT/T cell co-culture 72 hrs) [2]: 301 fold, relative to the mock CD8 T cells condition
B2: CAR 13-CD8 (antigen binding domain from binder F8, CD8 hinge) (other)
chain: QIQLVQSGTEVKKPGESLKISCKGSGYSFISHWIGWVRQMPGKGLEWMGIIYPGDSGTRYSPSFQGQATISADKSISTAYLQWSSLKASDTAMYYCARLADGGLQFDHWGQGTLVTVSSGGGGSGGGGSGGGGSQSALTQPASVSGSPGQSITISCTGTSSDVGGYNYVSWYQQHPGKAPKLMIYGVSNRPSGVSNRFSGSKSGNTASLTISGLQAEDEADYYCNSYTSSSTYVFGTGTKVTVLTRFVPVFLPAKPTTTPAPRPPTPAPTIASQPLSLRPEACRPAAGGAVHTRGLDFACDIYIWAPLAGTCGVLLLSLVITLYCNHRPPALEWVRSKRSRLLHSDYMNMTPRRPGPTRKHYQPYAPPRDFAAYRSASCTRVKFSRSADAPAYQQGQNQLYNELNLGRREEYDVLDKRRGRDPEMGGKPRRKNPQEGLYNELQKDKMAEAYSEIGMKGERRRGKGHDGLYQGLSTATKDTYDALHMQALPPR
